The text below walks through data of PMC4546403.

Chains of the proteins cited; added tags and fusions are not shown. Lines headed by an entry give the natural chain unless they say otherwise; changes in a name come on top. A line that says so, or that is headed by a name, gives the form on record, which may keep a tag or linker. Residues count along the entry.
mSmoWT-YFP (wild type mouse Smoothened with YFP tag) (P56726, residues 33-793): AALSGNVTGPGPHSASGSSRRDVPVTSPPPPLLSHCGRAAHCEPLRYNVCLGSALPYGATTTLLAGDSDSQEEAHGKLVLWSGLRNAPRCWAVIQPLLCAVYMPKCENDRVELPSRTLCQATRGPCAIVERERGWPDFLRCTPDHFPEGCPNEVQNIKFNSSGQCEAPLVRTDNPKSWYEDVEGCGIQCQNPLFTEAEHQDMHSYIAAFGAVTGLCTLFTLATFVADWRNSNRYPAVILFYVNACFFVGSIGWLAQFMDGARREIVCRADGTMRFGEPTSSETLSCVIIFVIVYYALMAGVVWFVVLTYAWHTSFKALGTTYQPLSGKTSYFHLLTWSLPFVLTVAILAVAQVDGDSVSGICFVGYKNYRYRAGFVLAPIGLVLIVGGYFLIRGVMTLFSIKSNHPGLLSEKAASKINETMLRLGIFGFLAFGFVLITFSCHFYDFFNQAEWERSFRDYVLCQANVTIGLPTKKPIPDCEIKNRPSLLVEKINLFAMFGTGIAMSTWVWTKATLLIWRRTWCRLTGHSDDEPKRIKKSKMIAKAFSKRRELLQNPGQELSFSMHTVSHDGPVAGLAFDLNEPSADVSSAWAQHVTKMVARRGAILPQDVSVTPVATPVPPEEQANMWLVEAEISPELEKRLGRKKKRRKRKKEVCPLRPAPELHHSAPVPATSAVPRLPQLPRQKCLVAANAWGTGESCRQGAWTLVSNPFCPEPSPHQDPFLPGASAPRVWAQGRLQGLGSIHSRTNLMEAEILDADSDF
mSmoNQ4-V5 (mouse Smoothened N38Q, N192Q, N450Q, N497Q with V5 epitope tag) (P56726, form named): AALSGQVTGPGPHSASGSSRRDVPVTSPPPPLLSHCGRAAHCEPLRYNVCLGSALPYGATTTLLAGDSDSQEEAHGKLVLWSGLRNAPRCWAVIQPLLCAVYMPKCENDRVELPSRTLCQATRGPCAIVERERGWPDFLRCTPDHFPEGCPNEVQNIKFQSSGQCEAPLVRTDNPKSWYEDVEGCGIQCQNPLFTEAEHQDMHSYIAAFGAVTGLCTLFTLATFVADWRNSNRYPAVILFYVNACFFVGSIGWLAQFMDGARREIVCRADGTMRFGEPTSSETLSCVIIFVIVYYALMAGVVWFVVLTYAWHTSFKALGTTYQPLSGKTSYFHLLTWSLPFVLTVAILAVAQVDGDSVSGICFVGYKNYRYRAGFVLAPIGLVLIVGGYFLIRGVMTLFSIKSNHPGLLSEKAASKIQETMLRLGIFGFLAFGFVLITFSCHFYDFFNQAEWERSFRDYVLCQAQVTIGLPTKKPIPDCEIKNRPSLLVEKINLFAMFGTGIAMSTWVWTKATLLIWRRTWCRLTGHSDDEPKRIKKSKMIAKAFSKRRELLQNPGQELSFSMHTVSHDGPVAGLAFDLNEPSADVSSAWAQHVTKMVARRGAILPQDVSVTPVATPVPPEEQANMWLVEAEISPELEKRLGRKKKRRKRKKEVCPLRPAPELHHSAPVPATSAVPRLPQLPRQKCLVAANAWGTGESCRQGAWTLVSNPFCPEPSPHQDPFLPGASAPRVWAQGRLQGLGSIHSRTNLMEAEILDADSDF

Test [1] deals with mSmoNQ4-YFP (mouse Smoothened N38Q, N192Q, N450Q, N497Q with YFP tag) (mouse) (UniProt P56726). The test is described as follows: co-IP; Differentially tagged mSmo proteins co-expressed in NIH3T3 cells; RIPA lysates (~200 ug protein) pre-cleared, incubated with 5 ug anti-GFP or rabbit IgG control at 4°C for 2 hours, collected on protein A/G beads; western blot against V5.
For test [2], the target named is mSmoWT-YFP (wild type mouse Smoothened with YFP tag) (mouse) (UniProt P56726). Described as above.

These are yes or no findings as the source states them, for the method shown. Binding seen in cells or lysates may run through a third protein. Some binding calls cover weakened binding; strength is not graded here.

For the substance “mSmoNQ4-V5 (mouse Smoothened N38Q, N192Q, N450Q, N497Q with V5 epitope tag) (from UniProt P56726 33-793) (receptor)”, the binding result in test [1] and in test [2] was “binds” throughout.
